Experimental data reported in patent publication US20080050380A1.
Results are given in words; binding and its absence hold for the method and conditions named. Some results given as binding are weak or reduced against the parent protein; the word gives no strength.

Chains of the proteins cited; added tags and fusions are not shown. Lines headed by an entry give the natural chain unless they say otherwise; changes in a name come on top. Residues count along the entry.
UniProt P08121, residues 155-1219: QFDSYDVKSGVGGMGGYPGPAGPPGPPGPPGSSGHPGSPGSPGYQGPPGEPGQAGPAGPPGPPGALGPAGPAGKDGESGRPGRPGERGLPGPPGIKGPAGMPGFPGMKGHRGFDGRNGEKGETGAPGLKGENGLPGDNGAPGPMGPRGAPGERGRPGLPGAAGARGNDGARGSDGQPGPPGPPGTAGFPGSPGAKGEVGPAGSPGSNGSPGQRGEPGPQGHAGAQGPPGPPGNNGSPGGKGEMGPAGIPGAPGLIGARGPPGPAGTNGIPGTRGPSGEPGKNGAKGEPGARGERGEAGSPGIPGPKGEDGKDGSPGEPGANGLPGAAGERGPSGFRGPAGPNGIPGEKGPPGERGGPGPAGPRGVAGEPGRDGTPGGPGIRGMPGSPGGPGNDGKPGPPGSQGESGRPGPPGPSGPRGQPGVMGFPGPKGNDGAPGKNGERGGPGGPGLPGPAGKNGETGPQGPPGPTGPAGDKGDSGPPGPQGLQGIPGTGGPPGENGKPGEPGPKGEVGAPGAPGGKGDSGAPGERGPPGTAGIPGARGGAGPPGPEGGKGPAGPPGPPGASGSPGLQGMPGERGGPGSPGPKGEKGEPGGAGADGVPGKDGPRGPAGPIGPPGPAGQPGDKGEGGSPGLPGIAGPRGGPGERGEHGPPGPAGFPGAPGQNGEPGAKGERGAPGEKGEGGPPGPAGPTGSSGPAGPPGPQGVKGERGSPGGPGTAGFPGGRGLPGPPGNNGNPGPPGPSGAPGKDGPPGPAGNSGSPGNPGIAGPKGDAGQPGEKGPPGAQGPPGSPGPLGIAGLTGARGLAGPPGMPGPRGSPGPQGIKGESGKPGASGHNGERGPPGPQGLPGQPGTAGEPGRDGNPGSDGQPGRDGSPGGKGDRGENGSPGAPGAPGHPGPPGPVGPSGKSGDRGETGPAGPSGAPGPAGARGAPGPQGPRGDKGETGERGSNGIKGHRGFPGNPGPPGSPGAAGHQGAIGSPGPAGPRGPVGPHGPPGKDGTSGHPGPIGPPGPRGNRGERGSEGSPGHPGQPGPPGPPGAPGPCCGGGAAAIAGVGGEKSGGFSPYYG
UniProt Q9HCN6: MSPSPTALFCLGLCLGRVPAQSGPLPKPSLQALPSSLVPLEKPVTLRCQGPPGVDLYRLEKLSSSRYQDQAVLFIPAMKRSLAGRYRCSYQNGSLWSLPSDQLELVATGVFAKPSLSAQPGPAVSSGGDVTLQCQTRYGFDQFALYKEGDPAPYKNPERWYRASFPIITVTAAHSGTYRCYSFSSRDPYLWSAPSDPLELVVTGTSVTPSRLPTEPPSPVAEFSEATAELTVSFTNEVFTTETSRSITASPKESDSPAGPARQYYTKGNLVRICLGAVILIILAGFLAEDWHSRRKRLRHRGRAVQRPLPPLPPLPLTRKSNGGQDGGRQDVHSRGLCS

Columns and labels:
[1] = target: mouse collagen on descending aorta sections (co-localises with collagen type III) (mouse) (UniProt P08121); assay: immunofluorescence on mouse aorta sections
[2] = target: mouse collagen on descending aorta sections (co-localises with collagen type III) (mouse) (UniProt P08121); assay: immunofluorescence on mouse descending aorta sections
[3] = target: mouse collagen on descending aorta sections (co-localises with collagen type III) (mouse) (UniProt P08121); assay: immunofluorescence on mouse descending aorta sections, 0.1 µg/ml GPVI-Fc

Measured: binding

soluble human GPVI-Fc (the extracellular domain of GPVI fused to Fc) (from UniProt Q9HCN6 21-269) (Fc fusion)
binds: all assays above
